Data reported in patent publication US5700640A, “Inducers of gamma globin gene expression and screening assays therefor” (priority 1994, dated 1997).

These molecules were tested on 28S ribosomal RNA (assay: Northern hybridization of 28S ribosomal RNA (standardization) in treated K562 cells). Details: 5 mM, 96 hours.
Format: cell-based, human

Compound | Raw Value, 28S RNA
CCCC(=O)O [BA, butyric acid] | 6.19 × 10^6
CC(C)CC(=O)O [IVA, isovaleric acid] | 1.85 × 10^6
CCCCC(=O)O [VA, valeric acid] | 1.66 × 10^6
